# PubChem BioAssay AID686938 – Drosophila RNAi Screening Center, 2013
# Assay: 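Fly genes required for calcium entry once internal stores are emptied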 (primary screen)
# System: Drosophila S2R+ cells
# Knock-down reagent: long dsRNA against Drosophila genes, about 0.25 µg dsRNA per well, roughly 10,000 cells
# Timing: 5 days of knock-down before the calcium assay
# Treatment: thapsigargin (SERCA pump blocker) to empty calcium stores; entry signal taken 4 min after adding it
# Measurement: 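Per-well fluo-4 fluorescence in two replicates, unnormalised, measured in resting cells and 4 min after store depletion by the SERCA blocker thapsigargin; ratio of the two present in few wells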
# Direction: calcium entry signal: higher = stronger calcium signal after store depletion; entry to resting ratio: higher = more calcium entry relative to resting level; resting calcium signal: higher = higher resting calcium signal
# Rule for the call: 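Called when the plate z-score of the entry-to-rest ratio, mean of duplicates, falls below −3; wells with low overall dye signal (Fmax z below −2) or more than five off-targets excluded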
# Calls: active = strongly reduced calcium entry; inactive = no strong reduction
# In all, the deposit lists about 23,000 reagents; below is an unselected part of those that have a named target and a result. Over the whole deposit, 75 (0.33%) got an active call. 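Raw plate signals without normalisation; calls rest on plate z-scores that were not deposited; ratio present for only 364 wells.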 A number with no mark means an inactive call. Reagents against one gene are numbered here. A plus sign joins genes that one reagent is predicted to hit. Not given: the dose of the treatment.
gene,reagent no.,"calcium entry signal, replicate 1 (fluorescence units)","calcium entry signal, replicate 2 (fluorescence units)",entry to resting ratio,"resting calcium signal, replicate 1 (fluorescence units)","resting calcium signal, replicate 2 (fluorescence units)"
CG1213 (GeneID 40728),1,4.46e7,3.97e7,,2.22e7,1.81e7
CG11635 (GeneID 35808),1,3.71e7,4.06e7,,1.80e7,1.88e7
Secp43 (GeneID 33652),1,2.83e7,2.53e7,,1.41e7,1.17e7
alpha-Est10 (GeneID 40896),1,3.82e7,3.26e7,,1.78e7,1.57e7
CG30172 (GeneID 246496),1,4.16e7,4.12e7,,2.08e7,1.93e7
Eaat1 (GeneID 34251),1,3.59e7,4.83e7,,1.51e7,2.00e7
CG13461 (GeneID 39635),1,3.59e7,5.54e7,,1.89e7,2.15e7
Ets21C (GeneID 33229),1,2.60e7,2.60e7,,1.31e7,1.20e7
CG30457 (GeneID 36940),1,4.84e7,1.71e7,,2.17e7,9.74e6
CG8079 (GeneID 36689),1,2.39e7,2.17e7,,1.16e7,1.11e7
CG8079 (GeneID 36689),2,3.90e7,4.65e7,,2.04e7,2.11e7
P58IPK (GeneID 41161),1,2.73e7,3.33e7,,1.48e7,1.69e7
lncRNA:CR43491 (GeneID 12797991),1,1.98e7,2.77e7,,1.07e7,1.26e7
CG8677 (GeneID 35397),1,3.81e7,,,1.99e7,
CG8814 (GeneID 33492),1,4.25e7,,,2.31e7,
Scgdelta (GeneID 31129),1,4.63e7,4.72e7,2,2.29e7,2.15e7
CG42813 (GeneID 43276),1,3.90e7,4.65e7,,1.83e7,2.03e7
JYalpha (retired record) + JYalpha,1,3.97e7,3.32e7,,2.19e7,1.51e7
CG12347 (GeneID 42152),1,2.45e7,2.93e7,,4.39e7,1.25e7
CG31627 (GeneID 318860),1,2.74e7,2.89e7,,1.30e7,1.42e7
TER94 (GeneID 36040),1,3.47e7,2.32e7,,2.06e7,1.53e7
fon (GeneID 35211),1,4.48e7,,,2.27e7,
Mos (GeneID 36404),1,3.32e7,4.46e7,,1.78e7,2.03e7
Hsp110 (GeneID 39557),1,2.26e7,3.12e7,,1.30e7,2.42e7
FBXO11 (GeneID 41209),1,3.39e7,4.75e7,,1.55e7,2.03e7
Pgam5 (GeneID 31143),1,2.95e7,3.20e7,,1.31e7,1.59e7
dod (GeneID 33111),1,5.25e7,4.20e7,,2.28e7,1.66e7
Taf2 (GeneID 39164),1,4.01e7,2.47e7,,2.75e7,1.07e7
unc-45 (GeneID 44910),1,5.67e7,3.57e7,,2.74e7,1.69e7
CG8441 (GeneID 36792),1,3.58e7,3.34e7,,1.64e7,1.61e7
Fad2 (GeneID 44006),1,1.97e7,2.59e7,,1.34e7,1.54e7
Cyp4e2 (GeneID 35822),1,4.35e7,3.71e7,,1.73e7,1.64e7
CCHa2 (GeneID 41648),1,2.87e7,5.03e7,,1.51e7,2.33e7
Osi16 (GeneID 318801),1,3.31e7,1.83e7,,1.56e7,9.03e6
Osi16 (GeneID 318801),2,2.35e7,2.92e7,,1.18e7,1.29e7
Cyp6a9 (GeneID 36663),1,2.87e7,4.04e7,,1.45e7,1.60e7
Tmf (GeneID 31629),1,2.94e7,3.99e7,,1.55e7,1.81e7
CG14589 (GeneID 35541),1,3.83e7,4.89e7,,2.02e7,2.19e7
Trpgamma (GeneID 34991),1,3.11e7,2.27e7,,1.47e7,1.15e7
CG33253 (GeneID 2768889),1,4.61e7,4.44e7,,2.33e7,2.17e7
CG33253 (GeneID 2768889),2,5.28e7,2.87e7,,2.29e7,1.49e7
CG33340 (GeneID 2768682),1,4.49e7,4.75e7,,2.17e7,1.73e7
CG16758 (GeneID 38315),1,4.51e7,4.47e7,,2.33e7,2.06e7
CG16758 (GeneID 38315),2,4.61e7,4.02e7,,2.01e7,1.96e7
Cad89D (GeneID 42006),1,2.94e7,4.86e7,,1.65e7,6.73e7
CG43116 (GeneID 12798270),1,3.30e7,4.20e7,,1.65e7,2.04e7
CG5326 (GeneID 42655),1,5.13e7,3.43e7,,2.59e7,1.65e7
CG5326 (GeneID 42655),2,4.71e7,3.05e7,,1.97e7,1.36e7
CG34126 (GeneID 318872),1,3.35e7,2.68e7,,1.72e7,1.45e7
CG34126 (GeneID 318872),2,4.49e7,7.49e7,,2.28e7,3.68e7
CG8191 (GeneID 32511),1,2.93e7,3.39e7,,1.58e7,1.56e7
Idgf1 (GeneID 34978),1,3.72e7,,,2.04e7,
CG3368 (GeneID 43292),1,3.79e7,4.07e7,,2.01e7,1.77e7
Prps (GeneID 39132),1,4.77e7,4.13e7,,2.44e7,2.01e7
Prps (GeneID 39132),2,2.77e7,4.31e7,,1.64e7,2.24e7
Prps (GeneID 39132),3,2.78e7,4.25e7,,1.67e7,2.20e7
Trmt112 (GeneID 40343),1,3.17e7,5.04e7,,1.42e7,1.97e7
psd (GeneID 33830),1,3.65e7,3.93e7,,1.74e7,1.78e7
Vps26 (GeneID 31144),1,2.97e7,3.32e7,,1.48e7,1.75e7
CG31347 (GeneID 318693),1,2.87e7,3.52e7,,1.70e7,1.55e7
CG4278 (GeneID 34970),1,4.48e7,,,2.38e7,
ninaA (GeneID 33271),1,4.16e7,,,2.56e7,
kek5 (GeneID 32930),1,4.76e7,6.61e7,,2.32e7,2.60e7
CG8520 (GeneID 36357),1,3.59e7,4.31e7,,1.62e7,2.04e7
CG9302 (GeneID 34750),1,4.36e7,1.72e7,,2.16e7,9.46e6
nAChRalpha3 (GeneID 31767),1,3.41e7,5.53e7,,1.80e7,2.64e7
CG12111 (GeneID 31796),1,3.34e7,3.79e7,,1.72e7,1.92e7
CR43670 + CR43671 + CR43669,1,1.75e7,3.47e7,,1.13e7,1.51e7
CR43670 + CR43671 + CR43669,2,3.33e7,3.09e7,,1.76e7,1.37e7
CG14491 (GeneID 37046),1,3.89e7,3.03e7,,1.70e7,1.57e7
CG11825 (GeneID 36099),1,4.84e7,4.50e7,,2.24e7,2.04e7
CG5516 (GeneID 41940),1,4.80e7,7.98e7,,2.22e7,7.67e7
CG5516 (GeneID 41940),2,2.77e7,3.77e7,,1.37e7,1.60e7
tap (GeneID 39935),1,4.54e7,5.12e7,,2.04e7,2.36e7
yellow-d2 (GeneID 37704),1,3.43e7,3.59e7,,1.70e7,1.43e7
